Test: general procedure: Fmoc solid-phase peptide synthesis; 2-chlorotrityl chloride (CTC); DIC/HOBt
Conditions: late stage modification step, sulfate salt

With “H-Dab(Boc)-Thr(tBu)-Dap(Boc)-cyclo[Dab-Dab(Boc)-DPhe-Leu-Dab(Boc)-Dab(Boc)-Thr(tBu)]” the step yield (TFA salt) was 94% and the “crude HPLC purity” value (UV220, TFA salt) was 78.7%.

Source: US20120316105A1 (priority 2011, published 2012)
